No constants are given. Whether binding was seen depends on the method and setting. In cells and extracts the contact can be indirect. A yes stands for co-enrichment or nearness to the bait. Other partners may have been found.
Target: SFB-LCN2 (lipocalin-2 with SFB tag) (human) (UniProt P80188)
Experiment: affinity purification with mass spectrometry; LCN2 precipitated from lysate of the stable SFB-LCN2 CAL-27 cell line (S-protein agarose beads for SFB-LCN2; the methods also say proteins immunoprecipitated with anti-LCN2 antibody were digested); silver staining; peptides analysed by mass spectrometry

Amino acid sequences for entries named in this document (tags omitted). Residues count along the entry.
UniProt P80188, residues 21-198: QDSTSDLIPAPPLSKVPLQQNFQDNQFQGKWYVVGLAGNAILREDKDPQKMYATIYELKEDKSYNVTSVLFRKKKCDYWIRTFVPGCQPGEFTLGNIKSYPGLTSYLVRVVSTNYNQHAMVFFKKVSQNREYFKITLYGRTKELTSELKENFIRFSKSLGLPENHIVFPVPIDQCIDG

- binding: binds
Substance: Epidermal growth factor receptor (EGFR) (from UniProt P00533 25-1210)
